Values from PubChem BioAssay AID1259254 (NCATS, 2017)

- Purpose: 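Gene knock-downs that lead to re-replication, shown by excess G2 DNA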 (primary screen)
- Cell system: human HCT116 colorectal cancer cells
- Knock-down reagent: single siRNA against human genes
- Time to read-out: 3 days
- Measured: 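Nuclei stained with Hoechst and imaged; cell-cycle phase assigned by DNA content; G2 share scaled per plate, non-targeting siRNA 0%, GMNN siRNA 100%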
- Scale: G2 robust z-score: higher = more G2 cells, more excess DNA replication
- Rule for the call: 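An siRNA counts as active if its G2 robust z-score lies at least 5 MADs above the screen median; here such calls match roughly 38% of GMNN control or more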
The whole screen tested about 59,000 reagents; this is a part drawn at random. Over the whole deposit, about 1,550 (2.6%) were called active. 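G2 share is only a proxy for re-replication; each gene was hit by three separate siRNAs, and active genes were retested.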 Unmarked entries are inactive. The numbers tell different reagents against one gene apart. Further read-outs or replicates are left out here. The record does not give: the amount of reagent.

gene symbol,reagent no.,G2 robust z-score
OR5AP2 (olfactory receptor family 5 subfamily AP member 2),1,0.266
OR5AP2 (olfactory receptor family 5 subfamily AP member 2),2,-0.0556
OR5AP2 (olfactory receptor family 5 subfamily AP member 2),3,-0.41
INO80 (INO80 complex ATPase subunit),1,-0.164
INO80 (INO80 complex ATPase subunit),2,0.126
INO80 (INO80 complex ATPase subunit),3,-0.877
FAM3C (FAM3 metabolism regulating signaling molecule C),1,-0.571
FAM3C (FAM3 metabolism regulating signaling molecule C),2,-0.612
FAM3C (FAM3 metabolism regulating signaling molecule C),3,1.32
CSF2RB (colony stimulating factor 2 receptor subunit beta),1,-1.42
CSF2RB (colony stimulating factor 2 receptor subunit beta),2,1.93
CSF2RB (colony stimulating factor 2 receptor subunit beta),3,0.126
MSL1 (MSL complex subunit 1),1,1.06
MSL1 (MSL complex subunit 1),2,0.238
MSL1 (MSL complex subunit 1),3,-0.875
MAGEA6 (MAGE family member A6),1,6.38 (active)
MAGEA6 (MAGE family member A6),2,-0.795
MAGEA6 (MAGE family member A6),3,-0.309
MAPK8IP1 (mitogen-activated protein kinase 8 interacting protein 1),1,-1.19
MAPK8IP1 (mitogen-activated protein kinase 8 interacting protein 1),2,-0.23
MAPK8IP1 (mitogen-activated protein kinase 8 interacting protein 1),3,-0.682
SLC10A2,1,-0.974
SLC10A2,2,1.41
SLC10A2,3,1.15
OR14A16 (olfactory receptor family 14 subfamily A member 16),1,-0.678
OR14A16 (olfactory receptor family 14 subfamily A member 16),2,-0.439
OR14A16 (olfactory receptor family 14 subfamily A member 16),3,-0.705
TCOF1 (treacle ribosome biogenesis factor 1),1,1.72
TCOF1 (treacle ribosome biogenesis factor 1),2,0.125
TCOF1 (treacle ribosome biogenesis factor 1),3,1.36
SNAPIN (SNAP associated protein),1,-1.6
SNAPIN (SNAP associated protein),2,-0.206
SNAPIN (SNAP associated protein),3,-0.032
DRD3 (dopamine receptor D3),1,-0.258
DRD3 (dopamine receptor D3),2,0.53
DRD3 (dopamine receptor D3),3,-0.638
IPCEF1 (interaction protein for cytohesin exchange factors 1),1,0.46
IPCEF1 (interaction protein for cytohesin exchange factors 1),2,-1.27
IPCEF1 (interaction protein for cytohesin exchange factors 1),3,-0.639
BMS1P1 (BMS1 pseudogene 1),1,-0.53
BMS1P1 (BMS1 pseudogene 1),2,-0.299
BMS1P1 (BMS1 pseudogene 1),3,-0.945
ZSCAN16 (zinc finger and SCAN domain containing 16),1,-0.486
ZSCAN16 (zinc finger and SCAN domain containing 16),2,0.206
ZSCAN16 (zinc finger and SCAN domain containing 16),3,0.0951

Records above with an active call (1):
gene symbol,reagent no.,G2 robust z-score
MAGEA6 (MAGE family member A6),1,6.38 (active)

Next reagents:
gene symbol,reagent no.,G2 robust z-score
VKORC1 (vitamin K epoxide reductase complex subunit 1),1,4.15
VKORC1 (vitamin K epoxide reductase complex subunit 1),2,-1.39
VKORC1 (vitamin K epoxide reductase complex subunit 1),3,-1.4
RRP7A (ribosomal RNA processing 7 homolog A),1,2.05
RRP7A (ribosomal RNA processing 7 homolog A),2,5.21 (active)
RRP7A (ribosomal RNA processing 7 homolog A),3,3.23
UMAD1 (UBAP1-MVB12-associated (UMA) domain containing 1),1,4.31
UMAD1 (UBAP1-MVB12-associated (UMA) domain containing 1),2,-0.235
UMAD1 (UBAP1-MVB12-associated (UMA) domain containing 1),3,0.00428
ETAA1 (ETAA1 activator of ATR kinase),1,-0.743
ETAA1 (ETAA1 activator of ATR kinase),2,0.198
ETAA1 (ETAA1 activator of ATR kinase),3,-0.0301
"ALDOB (aldolase, fructose-bisphosphate B)",1,4.91
"ALDOB (aldolase, fructose-bisphosphate B)",2,7.66 (active)
"ALDOB (aldolase, fructose-bisphosphate B)",3,-0.758
UNC5A (unc-5 netrin receptor A),1,0.584
UNC5A (unc-5 netrin receptor A),2,0.39
UNC5A (unc-5 netrin receptor A),3,0.061
CCDC15 (coiled-coil domain containing 15),1,1.09
CCDC15 (coiled-coil domain containing 15),2,3.05
CCDC15 (coiled-coil domain containing 15),3,-0.298
CRACR2B (calcium release activated channel regulator 2B),1,-0.628
CRACR2B (calcium release activated channel regulator 2B),2,-0.572
CRACR2B (calcium release activated channel regulator 2B),3,1.19
